Results are given in words; binding and its absence hold for the method and conditions named. In cells and extracts the contact can be indirect. Binding calls can cover weak binding; strength is not graded here. Where a sequence is shown, tags or fusion partners need not be part of it.
How the values were obtained:
[1] = target: endogenous APC (COS-7 cells); experiment: co-immunoprecipitation with anti-APC from transfected COS-7 cells, anti-EB1 western blot
[2] = target: endogenous APC (COS-7 cells); experiment: co-immunoprecipitation from transfected COS-7 cells, anti-EB1 western blot

binding [1]: binds
binding [2]: binds
B1: GST-EB1-C (other, mouse, UniProt Q61166 165-268, looked up)
chain: ATQRTTAAPKAGPGMVRKNPGVGNGDDEAAELMQQVKVLKLTVEDLEKERDFYFGKLRNIELICQENEGENDPVLQRIVDILYATDEGFVIPDEGGPQEEQEEY
notes: range 165-268; also called glutathione S-transferase fused to EB1-C; not shown: glutathione S-transferase (GST) tag, N-terminal, vector pGEX-2T

Reference: patent publication US20070148663A1 (TRUSTEES OF COLUMBIA UNIVERSITY IN THE CITY OF NEW YORK, published 2007)
